Laboratory results: PubChem BioAssay AID743454 (Peter MacCallum Cancer Centre, 2014)

- Test: 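Genes whose loss kills vorinostat-resistant colon cancer cells under vorinostat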 (primary screen)
- System: human HCT116-VR colon cancer cells, selected for vorinostat resistance
- Reagent: siRNA pool against human genes, 40 nM siRNA pool
- Time to read-out: vorinostat for 24 h, read-out about 72 h after transfection
- Conditions: vorinostat at 2.5 µM final
- Measurement: 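Two measures, CellTiter-Fluor viability and luminescent caspase 3/7 activity, each as fold change against same-plate mock wells, mean of duplicates, then screen-wide robust z-score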
- Reading the numbers: viability robust z-score: higher = more viable cells than screen typical; caspase robust z-score: higher = more caspase 3/7 activity than screen typical
- Rule for the call: 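a knock-down is a hit when classed RV1 or RV2 for lowered viability, or CA1 or CA2 for caspase activation; those lethal without drug were dropped; hits were retested singly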
The deposit covers about 18,000 reagents; this is a part drawn at random. Over the whole deposit, 450 (2.5%) were called active. 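Single biological run; no consistent viability z cut-off exists, so the class columns, not z-scores, define the calls.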 A number with no mark means an inactive call. Reagent sequences are not shown.

target	viability hit class	caspase hit class	viability robust z-score	caspase robust z-score
FBXO32 (F-box protein 32)	no change	no change	0.88	-0.49
NARF (nuclear prelamin A recognition factor)	no change	no change	-0.37	-0.21
H1-8 (H1.8 linker histone)	no change	no change	-0.96	-0.59
RTL9 (retrotransposon Gag like 9)	no change	no change	0.86	-0.4
NSFL1C (NSFL1 cofactor)	no change	no change	-1.49	-0.91
CITED1 (Cbp/p300 interacting transactivator with ED-rich tail 1)	no change	no change	-0.87	2.53
PLCD1 (phospholipase C delta 1)	no change	no change	-0.3	1.31
PCDHB12 (protocadherin beta 12)	no change	no change	0.7	-0.3
IL36RN (interleukin 36 receptor antagonist)	no change	no change	1.16	1.98
H2AC16 (H2A clustered histone 16)	no change	no change	-1.16	-1.02
RPRML (reprimo like)	no change	no change	1.56	0.57
CHRNA10 (cholinergic receptor nicotinic alpha 10 subunit)	no change	no change	-0.17	-0.77
TSC2 (TSC complex subunit 2)	no change	no change	1.11	0.62

In a second layout: results already given
target,viability hit class,caspase hit class,viability robust z-score,caspase robust z-score
NSFL1C (NSFL1 cofactor),no change,no change,-1.49,-0.91
CITED1 (Cbp/p300 interacting transactivator with ED-rich tail 1),no change,no change,-0.87,2.53
PLCD1 (phospholipase C delta 1),no change,no change,-0.3,1.31
PCDHB12 (protocadherin beta 12),no change,no change,0.7,-0.3
IL36RN (interleukin 36 receptor antagonist),no change,no change,1.16,1.98
H2AC16 (H2A clustered histone 16),no change,no change,-1.16,-1.02

Next results follow:
target	viability hit class	caspase hit class	viability robust z-score	caspase robust z-score
PRPH (peripherin)	no change	no change	0.92	1.66
ADGRF4 (adhesion G protein-coupled receptor F4)	no change	no change	-0.28	-1.29
FERRY3 (FERRY endosomal RAB5 effector complex subunit 3)	no change	no change	0.77	0.3
NDOR1 (NADPH dependent diflavin oxidoreductase 1)	no change	no change	-0.2	-1.34
RSPH10B (radial spoke head 10 homolog B)	no change	no change	0.64	-0.14
MPHOSPH9 (M-phase phosphoprotein 9)	no change	no change	-0.1	-1
MCHR2 (melanin concentrating hormone receptor 2)	no change	no change	-0.9	0.5
CHST1 (carbohydrate sulfotransferase 1)	no change	no change	-0.39	2.53
GPR39 (G protein-coupled receptor 39)	no change	no change	0.22	2.29
AGAP3 (ArfGAP with GTPase domain, ankyrin repeat and PH domain 3)	no change	no change	1.34	0.86
DACT1 (dishevelled binding antagonist of beta catenin 1)	no change	no change	-0.06	1.96
RBBP8NL (RBBP8 N-terminal like)	no change	no change	0.01	4.76
PCP4 (Purkinje cell protein 4)	RV2 (reduced viability) (active)	no change	-4.25	2.95
RAC3 (Rac family small GTPase 3)	no change	no change	0.94	0.2
CYBC1 (cytochrome b-245 chaperone 1)	no change	no change	-0.19	-0.1
WWC3 (WWC family member 3)	no change	no change	1.42	-0.7
EEPD1	no change	no change	1.03	-0.86
ASPRV1 (aspartic peptidase retroviral like 1)	no change	no change	1.45	0.92
RBM34 (RNA binding motif protein 34)	no change	no change	-1.06	4.4
RHBDL2 (rhomboid like 2)	no change	no change	0.94	-0.92
AIMP1	no change	no change	0.05	0.38
ACOX1 (acyl-CoA oxidase 1)	no change	no change	1.51	-0.36
CCNQ (cyclin Q)	no change	no change	0.48	-0.2
ZNF235 (zinc finger protein 235)	no change	no change	-0.77	-0.52
YTHDF1 (YTH N6-methyladenosine RNA binding protein F1)	no change	no change	1.41	0.1
ADAMTSL4 (ADAMTS like 4)	no change	no change	0.93	-0.24
